Binding data for three substances are collected here from article doi:10.1101/2024.10.25.620017.

By UniProt entry, the sequences of proteins in these tests, tags left out.
UniProt P62960: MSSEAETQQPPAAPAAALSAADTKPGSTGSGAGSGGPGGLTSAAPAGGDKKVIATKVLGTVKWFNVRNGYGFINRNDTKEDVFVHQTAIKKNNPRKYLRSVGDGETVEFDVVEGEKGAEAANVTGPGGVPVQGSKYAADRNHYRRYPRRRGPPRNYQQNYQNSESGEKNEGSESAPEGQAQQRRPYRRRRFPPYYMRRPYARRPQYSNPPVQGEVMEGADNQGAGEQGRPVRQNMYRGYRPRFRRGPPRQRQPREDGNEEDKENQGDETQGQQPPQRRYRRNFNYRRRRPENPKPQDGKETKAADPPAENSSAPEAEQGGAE
UniProt P53566: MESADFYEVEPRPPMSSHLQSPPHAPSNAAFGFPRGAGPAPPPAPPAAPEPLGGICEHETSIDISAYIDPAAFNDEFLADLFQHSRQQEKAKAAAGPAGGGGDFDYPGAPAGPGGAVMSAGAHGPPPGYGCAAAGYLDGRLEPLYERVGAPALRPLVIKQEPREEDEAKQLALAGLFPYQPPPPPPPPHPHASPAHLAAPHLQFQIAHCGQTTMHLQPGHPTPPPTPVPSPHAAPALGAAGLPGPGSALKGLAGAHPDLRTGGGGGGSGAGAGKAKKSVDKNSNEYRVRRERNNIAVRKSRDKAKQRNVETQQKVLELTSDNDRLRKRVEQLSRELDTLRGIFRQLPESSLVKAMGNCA
UniProt P28033: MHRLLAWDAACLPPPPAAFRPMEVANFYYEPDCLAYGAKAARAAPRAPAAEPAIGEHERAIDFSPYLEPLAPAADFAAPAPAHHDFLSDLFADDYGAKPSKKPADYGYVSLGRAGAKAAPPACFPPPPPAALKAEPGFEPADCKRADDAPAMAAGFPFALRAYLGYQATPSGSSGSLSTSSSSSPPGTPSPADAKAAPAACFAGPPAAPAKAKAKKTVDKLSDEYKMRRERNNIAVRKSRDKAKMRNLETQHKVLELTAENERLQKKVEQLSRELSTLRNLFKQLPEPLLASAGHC
UniProt Q61103: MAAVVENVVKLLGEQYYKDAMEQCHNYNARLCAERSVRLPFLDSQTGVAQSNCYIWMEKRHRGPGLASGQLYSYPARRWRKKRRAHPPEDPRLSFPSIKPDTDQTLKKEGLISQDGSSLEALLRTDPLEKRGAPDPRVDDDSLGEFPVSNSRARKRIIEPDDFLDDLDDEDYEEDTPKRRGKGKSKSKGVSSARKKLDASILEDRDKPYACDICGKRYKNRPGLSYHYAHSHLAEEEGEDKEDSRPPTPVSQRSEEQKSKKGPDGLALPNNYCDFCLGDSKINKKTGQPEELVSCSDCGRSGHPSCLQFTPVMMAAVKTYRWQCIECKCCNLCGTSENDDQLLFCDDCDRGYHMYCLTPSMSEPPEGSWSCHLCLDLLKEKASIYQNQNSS

No constants are given. Whether binding was seen depends on the method and setting. In cells and extracts the contact can be indirect. A yes stands for co-enrichment or nearness to the bait. Other partners may have been found.

In this test the target is Y box-binding protein 1 (YBX1) (mouse (endogenous in mouse liver)) (UniProt P62960). Description: affinity purification with mass spectrometry.
Turning to “CCAAT-enhancer-binding protein alpha (C/EBPα) (from UniProt P53566 1-359)”, the binding result is given as “binds”. Then Cebpb (from UniProt P28033 1-296), with “binds”; and DPF2 (from UniProt Q61103 1-391), with “binds”.
